Source: PubChem BioAssay AID1224826 (NIAID, 2016)
This is a random part of about 17,000 deposited reagents. Of all reagents, about 1,110 (6.6%) got an active call. 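Active means lowered or raised reporter signal; replicate intensities are raw and not normalised per plate.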 The numbers tell different reagents against one gene apart. No sequences are given here.

Purpose: 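Knock-downs that raise or lower Tnf reporter signal after endotoxin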 (primary screen)
System: RAW264.7 G9 macrophages from mouse bearing reporters for p65 (GFP) and the Tnf promoter (mCherry)
Reagent: siRNA pool against mouse genes, 100 nM
Time to read-out: 16 h of LPS stimulation, after 2 days of siRNA transfection
Challenge: bacterial lipopolysaccharide (Salmonella minnesota R595), 10 ng/ml
Read-out: 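Nuclear mCherry signal of the Tnf promoter reporter measured by imaging after background removal, scaled to each plate median and turned into robust z-scores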
Scale: Tnf reporter robust z-score: higher = stronger Tnf promoter reporter signal after LPS; Tnf reporter intensity: higher = stronger Tnf promoter reporter signal
Hit rule: 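Called active when robust z-score is at most -1.3, matching the median of the Tlr4 knock-down control, or over 3; control wells and wells with under 50 cells never active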
Calls: active = Tnf reporter clearly lowered or raised; inactive = no clear change in Tnf reporter

The opening 3 entries, to show the layout:
| Target gene | reagent no. | Tnf reporter robust z-score | fewer than 50 cells in well | Tnf reporter intensity, replicate 1 | Tnf reporter intensity, replicate 2 | call |
| --- | --- | --- | --- | --- | --- | --- |
| Foxb2 (GeneID 14240) | 1 | 1.39 | enough cells in well | 346 | 212 | inactive |
| Ube2e2 (GeneID 218793) | 1 | 5.21 | enough cells in well | 284 | 253 | active |
| Ufc1 (GeneID 66155) | 1 | -0.22 | enough cells in well | 179 | 88.9 | inactive |

Main list, from the first entry:
| Target gene | reagent no. | Tnf reporter robust z-score | fewer than 50 cells in well | Tnf reporter intensity, replicate 1 | Tnf reporter intensity, replicate 2 | call |
| --- | --- | --- | --- | --- | --- | --- |
| Foxb2 (GeneID 14240) | 1 | 1.39 | enough cells in well | 346 | 212 | inactive |
| Ube2e2 (GeneID 218793) | 1 | 5.21 | enough cells in well | 284 | 253 | active |
| Ufc1 (GeneID 66155) | 1 | -0.22 | enough cells in well | 179 | 88.9 | inactive |
| Tbl1x (GeneID 21372) | 1 | -0.41 | enough cells in well | 209 | 111 | inactive |
| Hoxb6 (GeneID 15414) | 1 | -0.52 | enough cells in well | 204 | 149 | inactive |
| Ppp1r15a (GeneID 17872) | 1 | 0.47 | enough cells in well | 275 | 263 | inactive |
| Fras1 (GeneID 231470) | 1 | -0.6 | enough cells in well | 222 | 93.4 | inactive |
| Ghrh (GeneID 14601) | 1 | -0.19 | enough cells in well | 252 | 210 | inactive |
| Ing2 (GeneID 69260) | 1 | 1.35 | enough cells in well | 324 | 237 | inactive |
| B3galt5 (GeneID 93961) | 1 | 0.99 | enough cells in well | 242 | 206 | inactive |
| Zbtb40 (GeneID 230848) | 1 | 0.14 | enough cells in well | 0 | 171 | inactive |
| Cd7 (GeneID 12516) | 1 | -0.1 | enough cells in well | 189 | 153 | inactive |
| Garin2 (GeneID 70897) | 1 | – | fewer than 50 cells per well; well left out of calls | 163 | 31.9 | inactive |
| Dhrs9 (GeneID 241452) | 1 | 0.7 | enough cells in well | 281 | 160 | inactive |
| Kcnv2 (GeneID 240595) | 1 | 0.76 | enough cells in well | 268 | 212 | inactive |
| Dcp1a (GeneID 75901) | 1 | 0.03 | enough cells in well | 257 | 216 | inactive |
| Erich5 (GeneID 239368) | 1 | -0.09 | enough cells in well | 191 | 211 | inactive |
| Bcl2l12 (GeneID 75736) | 1 | -1.37 | enough cells in well | 72.6 | 84.6 | active |
| Fmn2 (GeneID 54418) | 1 | 1.99 | enough cells in well | 339 | 278 | inactive |
| Strip1 (GeneID 229707) | 1 | -0.19 | enough cells in well | 126 | 139 | inactive |
| Reg2 (GeneID 19693) | 1 | -0.38 | enough cells in well | 132 | 91.2 | inactive |
| Asb11 (GeneID 68854) | 1 | -0.85 | enough cells in well | 128 | 112 | inactive |
| Grm1 (GeneID 14816) | 1 | -0.55 | enough cells in well | 186 | 223 | inactive |
| Myo9b (GeneID 17925) | 1 | 0.76 | enough cells in well | 294 | 288 | inactive |
| Kcng4 (GeneID 66733) | 1 | -0.12 | enough cells in well | 188 | 124 | inactive |
| Kctd3 (GeneID 226823) | 1 | -0.13 | enough cells in well | 173 | 133 | inactive |
| Rps19bp1 (GeneID 66538) | 1 | – | fewer than 50 cells per well; well left out of calls | 176 | 37.5 | inactive |
| HMGB2 | 1 | -1 | enough cells in well | 179 | 97.9 | inactive |
| Hoxd1 (GeneID 15429) | 1 | -0.94 | enough cells in well | 176 | 107 | inactive |
| Cox11 (GeneID 69802) | 1 | – | fewer than 50 cells per well; well left out of calls | 78.3 | 146 | inactive |
| Spry1 (GeneID 24063) | 1 | -0.7 | enough cells in well | 214 | 167 | inactive |
| Slc23a1 (GeneID 20522) | 1 | 0.38 | enough cells in well | 108 | 120 | inactive |
| Gzmd (GeneID 14941) | 1 | 0.76 | enough cells in well | 309 | 206 | inactive |
| Morc1 (GeneID 17450) | 1 | 2.53 | enough cells in well | 380 | 219 | inactive |
| Angpt2 (GeneID 11601) | 1 | -0.25 | enough cells in well | 121 | 193 | inactive |
| Retreg2 (GeneID 227298) | 1 | 1.91 | enough cells in well | 214 | 273 | inactive |
| Ap3s2 (GeneID 11778) | 1 | -0.73 | enough cells in well | 156 | 97.7 | inactive |
| Plk5 (GeneID 216166) | 1 | -0.67 | enough cells in well | 122 | 128 | inactive |
| 5330438I03Rik (GeneID 381325) | 1 | -0.54 | enough cells in well | 128 | 136 | inactive |
| Capn6 (GeneID 12338) | 1 | -0.97 | enough cells in well | 119 | 107 | inactive |
| Or51e1 (GeneID 259097) | 1 | -0.85 | enough cells in well | 226 | 54 | inactive |
| Adam30 (GeneID 71078) | 1 | -0.04 | enough cells in well | 173 | 160 | inactive |
| Or52m1 (GeneID 258322) | 1 | – | fewer than 50 cells per well; well left out of calls | 111 | 111 | inactive |
| Eppk1 (GeneID 223650) | 1 | 1.86 | enough cells in well | 396 | 226 | inactive |
| Or52ae9 (GeneID 258818) | 1 | 0.11 | enough cells in well | 70.7 | 163 | inactive |
| St6galnac4 (GeneID 20448) | 1 | 1.81 | enough cells in well | 129 | 199 | inactive |
| Slc24a3 (GeneID 94249) | 1 | 0.53 | enough cells in well | 125 | 113 | inactive |
| Iqcf3 (GeneID 68265) | 1 | -0.18 | enough cells in well | 207 | 76.2 | inactive |
| Fibin (GeneID 67606) | 1 | 0.01 | enough cells in well | 259 | 78.7 | inactive |
| Med26 (GeneID 70625) | 1 | -0.75 | enough cells in well | 191 | 135 | inactive |
| Celf6 (GeneID 76183) | 1 | – | fewer than 50 cells per well; well left out of calls | 40.8 | 132 | inactive |
| Nfic (GeneID 18029) | 1 | 0.34 | enough cells in well | 373 | 63.4 | inactive |
| Nfic (GeneID 18029) | 2 | 0.03 | enough cells in well | 232 | 193 | inactive |
| Rbmx (GeneID 19655) | 1 | 4.98 | enough cells in well | 374 | 311 | active |
| Usp15 (GeneID 14479) | 1 | 1.11 | enough cells in well | 312 | 320 | inactive |
| Adar (GeneID 56417) | 1 | -0.24 | enough cells in well | 220 | 143 | inactive |
| Pcdha3 (GeneID 192163) | 1 | 2.26 | enough cells in well | 231 | 262 | inactive |
| Amot (GeneID 27494) | 1 | 0.32 | enough cells in well | 236 | 201 | inactive |
